# In US20100093623A1, “COMPOSITIONS AND METHODS FOR […]-LIKE RECEPTOR ACTIVITY AND USES THEREOF” (Burnham Institute for Medical Research, priority 2008, published 2010):
# Results are given in words; binding and its absence hold for the method and conditions named. Some binding calls cover weakened binding; strength is not graded here. Where a sequence is shown, tags or fusion partners need not be part of it.
# Biological target: T1, (His)6-NLRP1 (NLR family, pyrin domain-containing 1), purified recombinant full-length protein from Sf21 cells (human) (UniProt Q9C000)
# T1 sequence: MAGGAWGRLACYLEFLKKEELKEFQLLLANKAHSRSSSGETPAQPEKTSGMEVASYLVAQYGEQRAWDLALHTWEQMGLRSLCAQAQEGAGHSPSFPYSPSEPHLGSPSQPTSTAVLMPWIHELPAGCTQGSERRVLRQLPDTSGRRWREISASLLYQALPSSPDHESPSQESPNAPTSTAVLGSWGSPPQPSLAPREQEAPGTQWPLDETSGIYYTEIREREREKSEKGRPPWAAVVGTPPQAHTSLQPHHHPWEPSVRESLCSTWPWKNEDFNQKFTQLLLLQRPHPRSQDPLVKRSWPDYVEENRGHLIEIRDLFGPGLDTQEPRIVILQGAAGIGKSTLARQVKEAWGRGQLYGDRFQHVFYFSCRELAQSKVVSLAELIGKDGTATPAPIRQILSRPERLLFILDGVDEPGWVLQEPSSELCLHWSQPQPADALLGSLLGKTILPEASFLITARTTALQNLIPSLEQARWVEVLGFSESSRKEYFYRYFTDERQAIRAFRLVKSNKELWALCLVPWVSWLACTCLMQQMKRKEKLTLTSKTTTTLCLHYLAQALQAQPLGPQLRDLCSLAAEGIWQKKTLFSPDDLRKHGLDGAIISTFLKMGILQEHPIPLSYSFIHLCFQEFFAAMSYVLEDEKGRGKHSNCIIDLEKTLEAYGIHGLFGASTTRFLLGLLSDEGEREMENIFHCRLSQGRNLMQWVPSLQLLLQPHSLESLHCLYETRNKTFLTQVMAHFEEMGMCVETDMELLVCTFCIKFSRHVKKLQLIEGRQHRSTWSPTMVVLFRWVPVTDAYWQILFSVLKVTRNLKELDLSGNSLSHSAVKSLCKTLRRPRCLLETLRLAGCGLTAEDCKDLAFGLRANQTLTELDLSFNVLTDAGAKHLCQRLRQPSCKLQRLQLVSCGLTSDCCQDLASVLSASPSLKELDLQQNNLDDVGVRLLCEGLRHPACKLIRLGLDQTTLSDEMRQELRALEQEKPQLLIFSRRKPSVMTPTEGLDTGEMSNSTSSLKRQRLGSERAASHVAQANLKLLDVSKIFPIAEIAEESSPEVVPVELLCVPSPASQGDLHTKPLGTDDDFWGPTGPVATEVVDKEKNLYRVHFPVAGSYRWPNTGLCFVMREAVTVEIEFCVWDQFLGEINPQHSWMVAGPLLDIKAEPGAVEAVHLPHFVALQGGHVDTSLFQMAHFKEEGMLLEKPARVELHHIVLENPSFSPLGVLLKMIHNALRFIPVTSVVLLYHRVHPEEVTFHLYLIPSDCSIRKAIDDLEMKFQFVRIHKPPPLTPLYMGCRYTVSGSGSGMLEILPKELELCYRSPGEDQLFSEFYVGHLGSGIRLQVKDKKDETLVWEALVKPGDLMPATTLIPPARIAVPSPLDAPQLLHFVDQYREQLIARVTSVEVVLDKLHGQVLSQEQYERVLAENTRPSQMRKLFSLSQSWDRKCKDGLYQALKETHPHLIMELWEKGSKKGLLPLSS
# Experiment: 2D native-PAGE/SDS-PAGE co-migration, purified proteins
substance,measurement,value
"GST-Bcl-XL (Bcl-XL lacking its C-terminal transmembrane domain, ~last 20 amino acids) (from UniProt P08515 1-218; Q07817 1-211)",binding,binds
